Reference: the supplement of paper PMC10849652
This is one part of the list.

By UniProt entry, the sequences of proteins in these tests, tags left out. Where a name states a change or a piece, a line headed by the entry shows the natural chain unless it says otherwise.
UniProt Q9BRX5: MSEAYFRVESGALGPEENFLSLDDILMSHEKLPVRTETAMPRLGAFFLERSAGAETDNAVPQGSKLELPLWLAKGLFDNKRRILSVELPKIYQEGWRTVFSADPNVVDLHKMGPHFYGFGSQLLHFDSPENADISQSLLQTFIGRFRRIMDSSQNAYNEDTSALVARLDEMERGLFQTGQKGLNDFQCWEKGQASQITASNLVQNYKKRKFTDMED
UniProt O75496: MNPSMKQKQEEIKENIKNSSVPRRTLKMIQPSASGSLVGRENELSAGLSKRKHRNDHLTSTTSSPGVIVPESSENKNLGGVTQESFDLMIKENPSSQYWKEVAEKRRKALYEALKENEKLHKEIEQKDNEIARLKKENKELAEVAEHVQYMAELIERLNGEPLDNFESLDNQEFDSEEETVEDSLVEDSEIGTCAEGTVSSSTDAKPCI
UniProt P06280: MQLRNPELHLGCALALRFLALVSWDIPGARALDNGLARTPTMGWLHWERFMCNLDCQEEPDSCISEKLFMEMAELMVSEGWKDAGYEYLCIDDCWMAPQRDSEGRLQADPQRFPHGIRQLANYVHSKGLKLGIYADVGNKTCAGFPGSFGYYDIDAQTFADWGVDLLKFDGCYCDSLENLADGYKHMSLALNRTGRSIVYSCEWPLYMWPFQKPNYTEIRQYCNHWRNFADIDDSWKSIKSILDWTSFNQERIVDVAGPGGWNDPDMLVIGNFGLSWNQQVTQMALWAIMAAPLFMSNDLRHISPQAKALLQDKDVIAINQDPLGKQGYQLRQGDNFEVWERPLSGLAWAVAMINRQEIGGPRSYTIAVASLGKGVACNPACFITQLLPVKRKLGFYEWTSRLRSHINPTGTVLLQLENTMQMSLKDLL
UniProt Q9H3K2: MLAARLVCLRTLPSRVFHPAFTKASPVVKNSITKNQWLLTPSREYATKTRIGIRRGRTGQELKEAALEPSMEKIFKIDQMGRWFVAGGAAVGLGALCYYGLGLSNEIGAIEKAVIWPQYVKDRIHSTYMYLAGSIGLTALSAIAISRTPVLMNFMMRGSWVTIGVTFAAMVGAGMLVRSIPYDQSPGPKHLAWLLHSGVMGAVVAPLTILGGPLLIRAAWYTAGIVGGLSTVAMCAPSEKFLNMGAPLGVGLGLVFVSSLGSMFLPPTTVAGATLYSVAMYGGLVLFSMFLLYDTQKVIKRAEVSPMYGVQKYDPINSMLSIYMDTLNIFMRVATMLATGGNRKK
UniProt O60234, whole entry, looked up: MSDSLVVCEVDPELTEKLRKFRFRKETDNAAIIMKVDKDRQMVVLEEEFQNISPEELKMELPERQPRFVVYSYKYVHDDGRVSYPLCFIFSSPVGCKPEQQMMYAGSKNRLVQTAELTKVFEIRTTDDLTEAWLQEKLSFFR
UniProt O00461: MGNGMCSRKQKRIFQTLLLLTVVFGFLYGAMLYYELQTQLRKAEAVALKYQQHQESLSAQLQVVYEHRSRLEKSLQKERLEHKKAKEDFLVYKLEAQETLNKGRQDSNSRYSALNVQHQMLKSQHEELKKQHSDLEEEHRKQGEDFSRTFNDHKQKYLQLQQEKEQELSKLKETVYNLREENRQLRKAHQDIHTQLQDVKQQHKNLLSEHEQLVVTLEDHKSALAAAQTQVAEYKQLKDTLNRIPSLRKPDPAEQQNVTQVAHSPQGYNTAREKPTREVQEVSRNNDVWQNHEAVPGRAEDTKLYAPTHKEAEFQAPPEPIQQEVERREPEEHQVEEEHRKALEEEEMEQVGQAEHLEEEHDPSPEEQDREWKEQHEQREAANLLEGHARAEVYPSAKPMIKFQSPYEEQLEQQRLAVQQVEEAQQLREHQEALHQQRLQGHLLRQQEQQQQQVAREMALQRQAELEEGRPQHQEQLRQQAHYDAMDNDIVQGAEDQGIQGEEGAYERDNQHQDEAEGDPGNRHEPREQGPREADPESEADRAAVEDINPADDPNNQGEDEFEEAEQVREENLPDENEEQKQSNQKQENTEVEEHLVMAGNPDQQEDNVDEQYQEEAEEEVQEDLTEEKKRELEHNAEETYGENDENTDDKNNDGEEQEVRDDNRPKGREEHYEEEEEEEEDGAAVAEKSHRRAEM
UniProt Q14691: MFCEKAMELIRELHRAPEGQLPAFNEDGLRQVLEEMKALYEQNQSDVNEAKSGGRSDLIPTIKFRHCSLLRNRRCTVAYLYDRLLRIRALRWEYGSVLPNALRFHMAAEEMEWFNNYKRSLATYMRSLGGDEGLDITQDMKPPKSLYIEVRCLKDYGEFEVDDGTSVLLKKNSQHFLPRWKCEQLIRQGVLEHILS
UniProt Q9P107: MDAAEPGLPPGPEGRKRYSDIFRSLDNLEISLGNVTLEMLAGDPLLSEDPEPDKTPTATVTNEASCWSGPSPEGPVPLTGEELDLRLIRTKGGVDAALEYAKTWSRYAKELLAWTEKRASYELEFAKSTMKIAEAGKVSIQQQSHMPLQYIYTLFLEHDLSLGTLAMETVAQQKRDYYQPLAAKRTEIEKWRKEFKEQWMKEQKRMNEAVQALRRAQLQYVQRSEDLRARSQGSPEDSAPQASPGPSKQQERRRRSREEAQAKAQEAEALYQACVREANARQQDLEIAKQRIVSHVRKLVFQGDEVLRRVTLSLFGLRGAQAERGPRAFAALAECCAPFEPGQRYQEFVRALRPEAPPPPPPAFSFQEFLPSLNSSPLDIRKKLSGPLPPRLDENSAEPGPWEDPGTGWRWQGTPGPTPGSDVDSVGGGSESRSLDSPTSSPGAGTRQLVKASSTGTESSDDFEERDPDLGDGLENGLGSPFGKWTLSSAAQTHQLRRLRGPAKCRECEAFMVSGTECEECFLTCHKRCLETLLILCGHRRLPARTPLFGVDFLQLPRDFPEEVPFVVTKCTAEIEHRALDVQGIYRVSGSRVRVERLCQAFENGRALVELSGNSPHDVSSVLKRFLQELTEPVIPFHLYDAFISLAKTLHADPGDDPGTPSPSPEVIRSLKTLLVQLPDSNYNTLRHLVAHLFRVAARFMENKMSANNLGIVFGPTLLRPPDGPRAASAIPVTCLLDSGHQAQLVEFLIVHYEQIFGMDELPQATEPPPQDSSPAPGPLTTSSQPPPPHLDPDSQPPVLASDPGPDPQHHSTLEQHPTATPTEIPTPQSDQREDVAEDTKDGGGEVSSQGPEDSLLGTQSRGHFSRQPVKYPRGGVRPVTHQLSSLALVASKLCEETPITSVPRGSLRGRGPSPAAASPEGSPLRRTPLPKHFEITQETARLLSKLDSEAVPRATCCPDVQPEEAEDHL
UniProt Q9BRR8: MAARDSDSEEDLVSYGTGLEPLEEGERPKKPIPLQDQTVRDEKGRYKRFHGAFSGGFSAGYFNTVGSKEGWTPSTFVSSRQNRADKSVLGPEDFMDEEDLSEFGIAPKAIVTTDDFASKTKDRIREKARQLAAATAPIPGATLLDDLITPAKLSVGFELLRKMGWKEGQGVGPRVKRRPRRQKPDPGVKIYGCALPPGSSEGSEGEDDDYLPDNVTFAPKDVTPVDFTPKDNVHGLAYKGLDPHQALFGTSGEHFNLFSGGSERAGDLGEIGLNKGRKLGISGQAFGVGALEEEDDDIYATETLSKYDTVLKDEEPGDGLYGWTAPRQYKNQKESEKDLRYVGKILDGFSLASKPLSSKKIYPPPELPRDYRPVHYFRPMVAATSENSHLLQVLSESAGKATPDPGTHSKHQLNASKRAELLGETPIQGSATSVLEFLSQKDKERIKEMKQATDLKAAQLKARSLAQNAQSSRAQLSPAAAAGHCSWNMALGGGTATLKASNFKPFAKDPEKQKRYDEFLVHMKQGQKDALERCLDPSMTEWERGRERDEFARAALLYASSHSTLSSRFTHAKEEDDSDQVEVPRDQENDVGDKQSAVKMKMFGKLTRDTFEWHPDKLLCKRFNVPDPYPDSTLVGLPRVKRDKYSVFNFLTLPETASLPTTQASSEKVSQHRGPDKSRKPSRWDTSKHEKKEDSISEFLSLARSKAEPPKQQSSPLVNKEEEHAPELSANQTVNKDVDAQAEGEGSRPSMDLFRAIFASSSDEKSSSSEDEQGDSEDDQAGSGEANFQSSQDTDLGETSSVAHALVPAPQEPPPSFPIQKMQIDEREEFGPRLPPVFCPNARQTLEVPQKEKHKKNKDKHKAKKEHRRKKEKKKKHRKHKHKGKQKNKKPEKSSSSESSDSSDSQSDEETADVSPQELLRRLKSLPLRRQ
UniProt Q9Y5P6: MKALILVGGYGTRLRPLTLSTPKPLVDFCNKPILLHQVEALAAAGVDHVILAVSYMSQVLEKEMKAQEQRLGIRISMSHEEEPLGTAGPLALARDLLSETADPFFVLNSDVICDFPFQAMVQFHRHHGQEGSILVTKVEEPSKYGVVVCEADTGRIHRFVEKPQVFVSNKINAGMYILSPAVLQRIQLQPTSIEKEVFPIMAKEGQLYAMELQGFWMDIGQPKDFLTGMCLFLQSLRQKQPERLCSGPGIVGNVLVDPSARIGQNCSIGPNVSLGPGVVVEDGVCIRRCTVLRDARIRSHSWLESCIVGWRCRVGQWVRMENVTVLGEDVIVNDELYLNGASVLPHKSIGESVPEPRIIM
UniProt O95249: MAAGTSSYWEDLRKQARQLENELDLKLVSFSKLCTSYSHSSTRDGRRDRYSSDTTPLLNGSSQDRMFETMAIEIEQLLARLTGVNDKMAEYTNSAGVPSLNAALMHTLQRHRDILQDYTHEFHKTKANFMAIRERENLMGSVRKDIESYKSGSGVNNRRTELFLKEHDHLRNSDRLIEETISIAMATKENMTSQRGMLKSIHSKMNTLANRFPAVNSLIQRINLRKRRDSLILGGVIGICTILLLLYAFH
UniProt Q08379: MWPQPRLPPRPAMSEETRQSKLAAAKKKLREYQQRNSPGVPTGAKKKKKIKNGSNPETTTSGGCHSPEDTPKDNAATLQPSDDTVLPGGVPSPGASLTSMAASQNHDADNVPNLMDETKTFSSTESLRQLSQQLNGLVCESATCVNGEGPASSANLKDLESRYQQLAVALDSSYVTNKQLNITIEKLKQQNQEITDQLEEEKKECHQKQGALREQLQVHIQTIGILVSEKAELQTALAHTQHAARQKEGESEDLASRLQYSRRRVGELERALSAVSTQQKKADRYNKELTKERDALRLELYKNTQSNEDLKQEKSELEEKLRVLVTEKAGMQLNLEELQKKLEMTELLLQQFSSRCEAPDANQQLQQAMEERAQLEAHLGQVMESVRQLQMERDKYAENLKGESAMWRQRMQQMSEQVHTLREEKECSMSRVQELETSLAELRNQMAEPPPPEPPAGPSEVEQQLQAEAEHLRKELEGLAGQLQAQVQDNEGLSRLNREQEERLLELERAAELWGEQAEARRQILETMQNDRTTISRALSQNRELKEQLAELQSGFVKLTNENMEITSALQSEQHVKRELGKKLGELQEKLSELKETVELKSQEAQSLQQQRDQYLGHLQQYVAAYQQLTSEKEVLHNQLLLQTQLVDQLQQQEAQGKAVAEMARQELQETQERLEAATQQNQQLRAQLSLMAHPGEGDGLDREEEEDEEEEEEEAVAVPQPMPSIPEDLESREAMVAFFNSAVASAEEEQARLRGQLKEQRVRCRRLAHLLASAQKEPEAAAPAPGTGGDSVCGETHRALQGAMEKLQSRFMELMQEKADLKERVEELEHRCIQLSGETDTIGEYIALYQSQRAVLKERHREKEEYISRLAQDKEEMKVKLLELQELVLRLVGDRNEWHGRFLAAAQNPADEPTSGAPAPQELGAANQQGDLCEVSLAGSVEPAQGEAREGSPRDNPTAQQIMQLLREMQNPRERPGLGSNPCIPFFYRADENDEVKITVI
UniProt P00505: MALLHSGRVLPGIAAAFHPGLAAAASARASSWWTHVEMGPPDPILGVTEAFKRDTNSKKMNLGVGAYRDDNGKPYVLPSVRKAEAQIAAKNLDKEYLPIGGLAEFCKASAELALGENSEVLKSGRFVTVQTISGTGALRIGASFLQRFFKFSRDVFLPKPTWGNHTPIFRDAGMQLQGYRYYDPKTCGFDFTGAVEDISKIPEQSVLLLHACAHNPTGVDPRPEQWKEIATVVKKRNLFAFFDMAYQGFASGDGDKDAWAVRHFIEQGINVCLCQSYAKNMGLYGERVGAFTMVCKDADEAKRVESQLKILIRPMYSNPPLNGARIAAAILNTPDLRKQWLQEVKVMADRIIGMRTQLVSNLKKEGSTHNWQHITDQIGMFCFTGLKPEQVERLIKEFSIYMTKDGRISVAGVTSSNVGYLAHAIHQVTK

Legend:
Assay in all cases: log2 fold change, soluble protein after heating vs DMSO (PISA); higher = thermal stabilisation; K562 lysate, 10 uM; active = over 0.2 and 3.5 SD of the protein, either way, in both replicates (recomputed)
alvocidib = compound: CN1CC[C@H](c2c(O)cc(O)c3c(=O)cc(-c4ccccc4Cl)oc23)[C@H](O)C1 [alvocidib]
Procedure, shortened: (§1)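 Pellets of K562 cells were dounce-homogenised in PBS pH 7.4 with 1 mM MgCl2, and the crude extract was held at 1 mg/mL protein for a 30 min treatment with 10 μM compound. Aliquots were heated for 3 min over 48°C-58°C and pooled before NP-40 was added to 0.5% at 4°C. The supernatant from 21,000xg for 90 min was quantified by TMTpro 16plex LC-MS/MS with channel sums equalised. Values are reported from duplicates as log-two fold change in thermal stability relative to solvent controls.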

Tubastatin A = compound: CN1CCc2c(c3ccccc3n2Cc2ccc(C(=O)NO)cc2)C1 [Tubastatin A]
Procedure, shortened: as §1

[1] = compound: CNC(=O)C1=CC=CC=C1NC2=NC(=NC=C2Cl)NC3=C(C=C(C=C3)N4CCOCC4)OC
Procedure, shortened: as §1

defactinib = compound: CNC(=O)c1ccc(Nc2ncc(C(F)(F)F)c(NCc3nccnc3N(C)S(C)(=O)=O)n2)cc1 [defactinib]
Procedure, shortened: as §1

[2] = compound: CNc1nc(-c2ccc3c(N)n[nH]c3c2)cc(N2C[C@@H](C(=O)NC3CCCCC3)CC[C@H]2C)n1
Procedure, shortened: as §1

encorafenib = compound: COC(=O)N[C@@H](C)CNc1nccc(-c2cn(C(C)C)nc2-c2cc(Cl)cc(NS(C)(=O)=O)c2F)n1 [encorafenib]
Procedure, shortened: as §1

[3] = compound: COC(=O)[C@H](CCSC)NC(=O)C1=C(C=C(C=C1)NC[C@H](CS)N)C2=CC=CC=C2
Procedure, shortened: as §1

alisertib = compound: COc1cc(Nc2ncc3c(n2)-c2ccc(Cl)cc2C(c2c(F)cccc2OC)=NC3)ccc1C(=O)O [alisertib]
Procedure, shortened: as §1

[4] = compound: COc1cc2nc(-c3cc(F)ccc3O)nc(N[C@@H]3CNC[C@H]3C(C)(C)O)c2cc1OC
Procedure, shortened: as §1

gefitinib = compound: COc1cc2ncnc(Nc3ccc(F)c(Cl)c3)c2cc1OCCCN1CCOCC1 [gefitinib]
Procedure, shortened: as §1

lapatinib = compound: CS(=O)(=O)CCNCc1ccc(-c2ccc3ncnc(Nc4ccc(OCc5cccc(F)c5)c(Cl)c4)c3c2)o1 [lapatinib]
Procedure, shortened: as §1

pictilisib = compound: CS(=O)(=O)N1CCN(Cc2cc3nc(-c4cccc5[nH]ncc45)nc(N4CCOCC4)c3s2)CC1 [pictilisib]
Procedure, shortened: as §1

crizotinib = compound: C[C@@H](Oc1cc(-c2cnn(C3CCNCC3)c2)cnc1N)c1c(Cl)ccc(F)c1Cl [crizotinib]
Procedure, shortened: as §1

[5] = compound: C[C@H](C1=CC=C(C=C1)C(=O)NC2=C3C=CNC3=NC=C2)N
Procedure, shortened: as §1

duvelisib = compound: C[C@H](Nc1ncnc2nc[nH]c12)c1cc2cccc(Cl)c2c(=O)n1-c1ccccc1 [duvelisib]
Procedure, shortened: as §1

gandotinib = compound: Cc1cc(Nc2cc(CN3CCOCC3)c3nc(C)c(Cc4ccc(Cl)cc4F)n3n2)n[nH]1 [gandotinib]
Procedure, shortened: as §1

tozasertib = compound: Cc1cc(Nc2cc(N3CCN(C)CC3)nc(Sc3ccc(NC(=O)C4CC4)cc3)n2)n[nH]1 [tozasertib]
Procedure, shortened: as §1

doramapimod = compound: Cc1ccc(-n2nc(C(C)(C)C)cc2NC(=O)Nc2ccc(OCCN3CCOCC3)c3ccccc23)cc1 [doramapimod]
Procedure, shortened: as §1

bafetinib = compound: Cc1ccc(NC(=O)c2ccc(CN3CC[C@H](N(C)C)C3)c(C(F)(F)F)c2)cc1Nc1nccc(-c2cncnc2)n1 [bafetinib]
Procedure, shortened: as §1

[6] = compound: Cc1cccc(CC(=O)N2CCc3c2ccc(-c2cn(C)c4ncnc(N)c24)c3F)n1
Procedure, shortened: as §1

Measured: log2 fold change

GNL2 (UniProt Q13823)
inactive: alvocidib 0.013 | Tubastatin A -0.035 | [1] 0.06 | defactinib -0.001 | [2] -0.005 | encorafenib 0.024 | [3] 0.096 | alisertib 0.009 | [4] 0.008 | gefitinib -0.043 | lapatinib 0.028 | pictilisib -0.017 | crizotinib -0.031 | [5] 0.031 | duvelisib 0.046 | gandotinib -0.047 | tozasertib -0.023 | doramapimod 0.018 | bafetinib -0.075 | [6] -0.012

GINS3 (UniProt Q9BRX5)
inactive: alvocidib 0.032 | Tubastatin A -0.04 | [1] 0.018 | defactinib 0.002 | [2] -0.016 | encorafenib -0.025 | [3] -0.102 | alisertib 0.018 | [4] -0.042 | gefitinib -0.016 | lapatinib 0.011 | pictilisib 0.005 | crizotinib 0.018 | [5] 0.024 | duvelisib -0.058 | gandotinib -0.021 | tozasertib 0.07 | doramapimod -0.026 | bafetinib -0.027 | [6] -0.026

GMNN (UniProt O75496)
inactive: alvocidib -0.023 | Tubastatin A 0.024 | [1] -0.019 | defactinib -0.003 | [2] -0.013 | encorafenib 0.012 | [3] -0.021 | alisertib -0.023 | [4] 0.023 | gefitinib -0.025 | lapatinib -0.033 | pictilisib -0.056 | crizotinib 0.016 | [5] -0.033 | duvelisib 0.008 | gandotinib 0.044 | tozasertib 0.021 | doramapimod -0.014 | bafetinib -0.004 | [6] -0.028

GLA (UniProt P06280)
inactive: alvocidib -0.008 | Tubastatin A 0.003 | [1] 0.027 | defactinib 0.019 | [2] 0.03 | encorafenib -0.048 | [3] 0.005 | alisertib -0.024 | [4] 0.022 | gefitinib -0.015 | lapatinib -0.006 | pictilisib 0.037 | crizotinib -0.012 | [5] 0.061 | duvelisib 0.011 | gandotinib 0.014 | tozasertib 0.015 | doramapimod -0.032 | bafetinib -0.018 | [6] -0.018

GHITM (UniProt Q9H3K2)
inactive: alvocidib -0.005 | Tubastatin A 0.018 | [1] 0.013 | defactinib 0.016 | [2] 0.041 | encorafenib 0 | [3] -0.05 | alisertib 0.001 | [4] -0.006 | gefitinib -0.003 | lapatinib -0.021 | pictilisib -0.051 | crizotinib -0.001 | [5] -0.012 | duvelisib 0.009 | gandotinib 0.014 | tozasertib -0.024 | doramapimod -0.009 | bafetinib -0.001 | [6] 0.013

GMFG (UniProt O60234)
inactive: alvocidib 0.037 | Tubastatin A -0.065 | [1] 0.026 | defactinib 0.002 | [2] -0.049 | encorafenib 0.014 | [3] -0.036 | alisertib 0.048 | [4] 0.004 | gefitinib -0.043 | lapatinib 0.051 | pictilisib 0.048 | crizotinib 0.03 | [5] 0.065 | duvelisib 0.011 | gandotinib -0.023 | tozasertib -0.048 | doramapimod -0.003 | bafetinib -0.022 | [6] -0.084

Pulled one by one from above, two records:
GMFG (UniProt O60234)
inactive: alvocidib 0.037 | Tubastatin A -0.065 | [1] 0.026 | defactinib 0.002 | [2] -0.049 | encorafenib 0.014 | [3] -0.036 | alisertib 0.048 | [4] 0.004 | gefitinib -0.043 | lapatinib 0.051 | pictilisib 0.048 | crizotinib 0.03 | [5] 0.065 | duvelisib 0.011 | gandotinib -0.023 | tozasertib -0.048 | doramapimod -0.003 | bafetinib -0.022 | [6] -0.084

GINS3 (UniProt Q9BRX5)
inactive: alvocidib 0.032 | Tubastatin A -0.04 | [1] 0.018 | defactinib 0.002 | [2] -0.016 | encorafenib -0.025 | [3] -0.102 | alisertib 0.018 | [4] -0.042 | gefitinib -0.016 | lapatinib 0.011 | pictilisib 0.005 | crizotinib 0.018 | [5] 0.024 | duvelisib -0.058 | gandotinib -0.021 | tozasertib 0.07 | doramapimod -0.026 | bafetinib -0.027 | [6] -0.026

Following part

GOLIM4 (UniProt O00461)
inactive: alvocidib 0.063 | Tubastatin A 0.048 | [1] -0.03 | defactinib -0.037 | [2] 0.022 | encorafenib 0.061 | [3] -0.018 | alisertib -0.009 | [4] -0.042 | gefitinib 0.062 | lapatinib 0.016 | pictilisib -0.042 | crizotinib 0.007 | [5] 0.129 | duvelisib -0.033 | gandotinib -0.074 | tozasertib -0.01 | doramapimod 0.028 | bafetinib -0.032 | [6] -0.082

GINS1 (UniProt Q14691)
inactive: alvocidib -0.017 | Tubastatin A -0.034 | [1] -0.013 | defactinib -0.052 | [2] -0.009 | encorafenib -0.056 | [3] 0.012 | alisertib 0.015 | [4] 0.001 | gefitinib -0.027 | lapatinib -0.018 | pictilisib -0.059 | crizotinib -0.045 | [5] -0.025 | duvelisib 0.025 | gandotinib -0.04 | tozasertib 0.019 | doramapimod 0.01 | bafetinib -0.055 | [6] 0

GMIP (UniProt Q9P107)
inactive: alvocidib -0.078 | Tubastatin A -0.139 | [1] 0.088 | defactinib 0.033 | [2] -0.01 | encorafenib 0.061 | [3] 0.031 | alisertib -0.014 | [4] -0.078 | gefitinib 0.11 | lapatinib -0.046 | pictilisib -0.015 | crizotinib -0.006 | [5] 0.029 | duvelisib -0.005 | gandotinib -0.024 | tozasertib -0.014 | doramapimod -0.049 | bafetinib -0.068 | [6] 0.041

GPATCH1 (UniProt Q9BRR8)
inactive: alvocidib 0.071 | Tubastatin A -0.065 | [1] 0.014 | defactinib -0.06 | [2] 0.182 | encorafenib 0.04 | [3] 0.016 | alisertib -0.349 | [4] -0.014 | gefitinib -0.141 | lapatinib 0.02 | pictilisib 0.065 | crizotinib 0.037 | [5] 0.184 | duvelisib 0.062 | gandotinib -0.099 | tozasertib -0.02 | doramapimod 0.064 | bafetinib 0.062 | [6] -0.156

GMPPB isoform 2 (UniProt Q9Y5P6)
inactive: alvocidib -0.036 | Tubastatin A -0.02 | [1] 0.027 | defactinib 0.061 | [2] -0.006 | encorafenib -0.057 | [3] 0.144 | alisertib 0.014 | [4] -0.013 | gefitinib 0.051 | lapatinib 0.015 | pictilisib -0.023 | crizotinib -0.013 | [5] -0.055 | duvelisib 0.04 | gandotinib 0.022 | tozasertib 0.044 | doramapimod 0.006 | bafetinib 0.009 | [6] 0.065

GOSR1 (UniProt O95249)
inactive: alvocidib -0.011 | Tubastatin A -0.067 | [1] -0.038 | defactinib 0.038 | [2] 0.006 | encorafenib 0.095 | [3] -0.07 | alisertib -0.036 | [4] -0.044 | gefitinib 0.029 | lapatinib 0.01 | pictilisib 0.007 | crizotinib -0.059 | [5] 0.027 | duvelisib -0.014 | gandotinib -0.005 | tozasertib 0.054 | doramapimod 0.049 | bafetinib -0.028 | [6] 0.051

GIGYF2 (UniProt Q6Y7W6)
inactive: alvocidib -0.028 | Tubastatin A -0.164 | [1] 0.052 | defactinib 0.017 | [2] 0.019 | encorafenib 0.092 | [3] -0.063 | alisertib 0.028 | [4] 0.013 | gefitinib 0.005 | lapatinib 0.013 | pictilisib 0.057 | crizotinib 0.024 | [5] 0.03 | duvelisib -0.033 | gandotinib 0.05 | tozasertib -0.006 | doramapimod -0.086 | bafetinib -0.043 | [6] -0.009

GOLGA2 (UniProt Q08379)
inactive: alvocidib -0.011 | Tubastatin A -0.005 | [1] 0.001 | defactinib 0.013 | [2] -0.024 | encorafenib -0.024 | [3] -0.006 | alisertib 0.03 | [4] 0.05 | gefitinib -0.003 | lapatinib -0.018 | pictilisib -0.05 | crizotinib -0.061 | [5] -0.008 | duvelisib -0.016 | gandotinib -0.058 | tozasertib -0.013 | doramapimod 0.014 | bafetinib -0.052 | [6] 0.064

GOT2 (UniProt P00505)
inactive: alvocidib 0.004 | Tubastatin A 0.015 | [1] 0.001 | defactinib 0.021 | [2] 0.026 | encorafenib -0.013 | [3] -0.035 | alisertib -0.006 | [4] 0.009 | gefitinib 0.009 | lapatinib 0.012 | pictilisib 0.009 | crizotinib 0.005 | [5] 0.079 | duvelisib -0.014 | gandotinib -0.005 | tozasertib 0.013 | doramapimod -0.025 | bafetinib 0.13 | [6] -0.056

GON4L (UniProt Q3T8J9)
inactive: alvocidib 0.019 | Tubastatin A -0.114 | [1] 0.028 | defactinib -0.001 | [2] 0.007 | encorafenib 0.092 | [3] 0.107 | alisertib -0.015 | [4] -0.027 | gefitinib -0.074 | lapatinib 0.006 | pictilisib -0.04 | crizotinib -0.05 | [5] -0.066 | duvelisib -0.045 | gandotinib 0.391 | tozasertib -0.054 | doramapimod -0.011 | bafetinib -0.07 | [6] 0.01
